According to patent publication US20120321635A1:
Results are given in words; binding and its absence hold for the method and conditions named. Binding seen in cells or lysates may run through a third protein. Some binding calls cover weakened binding; strength is not graded here. Tags and fused reporters may be left off the sequences shown.

Amino acid sequences for entries named in this document (tags omitted).
UniProt O96013: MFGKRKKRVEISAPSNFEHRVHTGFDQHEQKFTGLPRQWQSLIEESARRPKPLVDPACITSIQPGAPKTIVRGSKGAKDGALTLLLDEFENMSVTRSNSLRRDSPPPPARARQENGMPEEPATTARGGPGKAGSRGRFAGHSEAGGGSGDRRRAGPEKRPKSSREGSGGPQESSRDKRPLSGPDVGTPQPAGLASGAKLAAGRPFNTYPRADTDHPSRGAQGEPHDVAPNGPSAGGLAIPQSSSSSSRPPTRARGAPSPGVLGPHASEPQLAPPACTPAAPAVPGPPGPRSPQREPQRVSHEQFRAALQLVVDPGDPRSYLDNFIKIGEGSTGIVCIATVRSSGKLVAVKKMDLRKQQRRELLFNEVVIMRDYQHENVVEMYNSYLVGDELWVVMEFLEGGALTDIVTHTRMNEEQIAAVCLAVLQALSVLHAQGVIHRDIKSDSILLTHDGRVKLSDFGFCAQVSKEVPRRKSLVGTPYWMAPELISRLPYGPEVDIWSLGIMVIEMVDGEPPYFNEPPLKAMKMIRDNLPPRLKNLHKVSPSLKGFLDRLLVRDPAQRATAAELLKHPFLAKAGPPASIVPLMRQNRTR

Legend:
[1] = target: p21-activated kinase 4 (PAK4) protein expressed from pcDNA-PAK4-flag vector (UniProt O96013); test: co-immunoprecipitation and Western blotting
[2] = target: p21-activated kinase 4 (PAK4) protein expressed from pcDNA-PAK4-flag vector (UniProt O96013); test: co-immunoprecipitation from HEK293T cells (restated from Example 3-1)
[3] = target: p21-activated kinase 4 (PAK4) protein expressed from pcDNA-PAK4-flag vector (UniProt O96013); test: co-immunoprecipitation from HEK293T cytoplasm fraction (anti-Flag IP, anti-c-myc Western blot)

binding [1]: binds
binding [2]: binds
binding [3]: binds
B1: myc-labelled SH3RF2 (SH3 domain containing ring finger 2) protein expressed from pcDNA-SH3RF2-myc (enzyme, not shown: small tags and cut ends)
chain: MDDLTLLDLLECPVCFEKLDVTAKVLPCQHTFCKPCLQRVFKAHKELRCPECRTPVFSNIEALPANLLLVRLLDGVRSGQSSGRGGSFRRPGTMTLQDGRKSRTNPRRLQASPFRLVPNVRIHMDGVPRAKALCNYRGQNPGDLRFNKGDIILLRRQLDENWYQGEINGISGNFPASSVEVIKQLPQPPPLCRALYNFDLRGKDKSENQDCLTFLKDDIITVISRVDENWAEGKLGDKVGIFPILFVEPNLTARHLLEKNKGRQSSCTKNLSLVSSSSRGNTSTLRRGPGSRRKVPGQFSITTALNTLNRMVHSPSGRHMVEISTPVLISSSNPSVITQPMEKADVPSSCVGQVSTYHPAPVSPGHSTAVVSLPGSQQHLSANMFVALHSYSAHGPDELDLQKGEGVRVLGKCQDGWLRGVSLVTGRVGIFPNNYVIPIFRKTSSFPDSRSPGLYTTWTLSTSSVSSQGSISEGDPRQSRPFKSVFVPTAIVNPVRSTAGPGTLGQGSLRKGRSSMRKNGSLQRPLQSGIPTLVVGSLRRSPTMVLRPQQFQFYQPQGIPSSPSAVVVEMGSKPALTGEPALTCISRGSEARIHSAASSLIMEDKEIPIKSEPLPKPPASAPPSILVKPENSRNGIEKQVKTVRFQNYSPPPTKHYTSHPTSGKPEQPATLKASQPEAASLGPEMTVLFAHRSGCHSGQQTDLRRKSALAKATTLVSTASGTQTVFPSK
